Assay results reported in article doi:10.1101/2023.09.21.558797.
These are yes or no findings as the source states them, for the method shown. In cells and extracts the contact can be indirect. A yes stands for co-enrichment or nearness to the bait. Other partners may have been found.

The chains behind the UniProt entries cited, without tags or fusion partners. Where a name states a change or a piece, a line headed by the entry shows the natural chain unless it says otherwise. Residues count along the entry.
UniProt P21575, residues 746-864: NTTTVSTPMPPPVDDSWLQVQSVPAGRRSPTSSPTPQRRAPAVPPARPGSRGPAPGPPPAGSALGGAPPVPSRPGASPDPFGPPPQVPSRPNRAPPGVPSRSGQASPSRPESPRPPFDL
UniProt O35180: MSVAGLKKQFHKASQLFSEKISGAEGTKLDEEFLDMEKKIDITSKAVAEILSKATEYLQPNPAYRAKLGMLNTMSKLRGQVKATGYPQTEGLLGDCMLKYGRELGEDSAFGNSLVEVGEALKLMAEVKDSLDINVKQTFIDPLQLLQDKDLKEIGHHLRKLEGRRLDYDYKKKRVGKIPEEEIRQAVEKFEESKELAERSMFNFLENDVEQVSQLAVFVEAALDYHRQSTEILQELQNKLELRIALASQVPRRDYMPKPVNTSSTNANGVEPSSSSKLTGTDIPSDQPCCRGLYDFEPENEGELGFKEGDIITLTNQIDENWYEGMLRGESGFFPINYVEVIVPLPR

Biological target: GST-Dyn1xA-PRR (full-length proline-rich region of Dynamin 1 splice variant xA, 746-864) (rat) (UniProt P21575)
Assay: affinity purification with mass spectrometry; GST-Dyn1-PRR pull-down from rat synaptosomal lysate; 40 kDa Coomassie band excised, LC-MS/MS and selective reaction monitoring (SRM) of the three Endophilin A isoforms; only the target purified

- binding: binds
Substance: Endophilin A3 (endogenous, rat brain synaptosomes) (from UniProt O35180 1-347)
